Source: PubChem BioAssay AID1347075 (National Center for Advancing Translational Sciences (NCATS), 2019)
The campaign covered roughly 400,000 compounds. About 5,500 (1.4%) were called active. Inconclusive results, whose numbers are uncertain, are shown with a selection of clear calls. Calls come from the whole dose curve; as a rule, active = well fitted cell-killing curve with a large enough effect; inconclusive = small, poorly fitted or top-dose-only effect, or effect the other way; inactive = flat fitted curve, though single readings scatter. A potency beside an inconclusive call is a rough fit, not a confirmed value.

Experiment: qHTS assay for MDR1-selective chemotherapeutics: Primary screen using the parental adenocarcinoma cell KB-3-1; note: nearly all actives have a fitted effect of over 60% in size
Details: KB-3-1 viability, CellTiter-Glo ATP luminescence, 72 h; activity change, negative = cytotoxic: at 46.1 µM (top of the series)
Summary of the method: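 Luminescent ATP read-out (CellTiter-Glo) measures survival of drug-naive KB-3-1 cells after 72 h compound exposure at 37 °C. Titration series was screened from lowest to highest concentration, with DMSO vehicle plates as background controls.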
% is set by controls: 0 for no effect and ±100 for the full control effect; potency is the fitted concentration of half-maximal effect.

Row | SMILES | Potency | activity change, negative = cytotoxic
1 | CN(CC(=O)Nc1ccccc1C(F)(F)F)C(=O)COc1ccccc1Cc1ccccc1 | inactive | 
2 | Cc1cccc(C(=O)NC(=S)NNC(=O)c2ccc(Cl)cc2)c1 | inconclusive: 10.3 µM [cytotoxic, partial curve] | 
3 | Cc1cc(C)n2nc(CNC(=O)c3cccc(Cl)c3)nc2n1 | inactive | 
4 | O=c1c2cc(N3CCOCC3)ccc2[nH]c(=S)n1Cc1ccccc1Cl | inactive | 
5 | Cc1cc(-c2ccc(C)c(S(=O)(=O)N3CCN(c4ccc([N+](=O)[O-])cc4)CC3)c2)on1 | inconclusive: 14.6 µM [cytotoxic, partial curve, poor fit] | 
6 | COc1cc(-c2noc(C)c2/C=C/c2ccc(C(=O)O)cc2)cc(OC)c1OC | inconclusive: 29.1 µM [cytotoxic, single point] | 
7 | COc1ccc(OCC(=O)Nc2cccc(-c3nc4ccccc4[nH]3)c2)cc1 | inactive | 
8 | CCOc1ccc(/C=C/c2ccc3ccccc3[n+]2C)cc1OCC | inconclusive: 10.3 µM [cytotoxic, partial curve, poor fit] | 
9 | CSc1ccc(CCNC(=O)C(C)n2nc(C)c3c(C)n(-c4ccccc4)nc3c2=O)cc1 (centres undefined) | inconclusive: 18.4 µM [cytotoxic, single point] | 
10 | Cc1cccc(CNC(=O)c2ccc(-c3nc(CS(=O)(=O)c4ccccc4)c(C)o3)cc2)c1 | inconclusive: 7.31 µM [cytotoxic, partial curve, poor fit] | 
11 | Nc1nc(-c2ccc(Cl)cc2)nc(-c2ccc(Cl)cc2)n1 | inactive | 
12 | O=C(CC1Nc2ccccc2NC1=O)Nc1ccccc1 (centres undefined) | inconclusive: 29.1 µM [cytotoxic, single point] | 
13 | Cn1c(=O)[nH]c2sc3c(c2c1=O)CC(C)(C)OC3 | inconclusive: 2.59 µM [rising, partial curve, poor fit] | 
14 | OCc1ccnc2c(O)cccc12 | inconclusive: 29.1 µM [cytotoxic, single point] | 
15 | CCCS(=O)(=O)NC(=O)C1(C)CCN(C(=O)c2ccc(F)c(Cl)c2)C1 (centres undefined) | inactive | 
16 | Cc1ccc2c(CNCc3cccs3)c(C(=O)O)n(Cc3ccc(F)cc3)c2c1 | active: 11.6 µM | 
17 | O=C(NC1CCCC1)c1cc2c(ccc3ccccc32)o1 | inconclusive: 20.6 µM [cytotoxic, single point] | 
18 | CCc1nnc2n1N=C(c1ccc(OC)cc1)CS2 | active: 23.1 µM | 
19 | COc1cccc2sc(N3CCN(C(=O)c4ccc([N+](=O)[O-])o4)CC3)nc12 | inconclusive: 32.6 µM [cytotoxic, single point] | 
20 | COc1cc(OC)c(NC2=CC(=O)C(=O)c3ccccc32)cc1Cl | active: 4.61 µM | 
21 | O=C(NCc1ccncc1)[C@@H]1CCCN1C(=O)[C@@H]1CCCN1C(=O)c1ccccc1 | inactive | 
22 | Cc1cc(C)cc(NC2=NC3(CCCCC3)N=C(N)N2)c1 | inconclusive: 1.64 µM [cytotoxic, full curve, poor fit] | 
23 | Cc1ccc(S(=O)(=O)Nc2ccc(OCC(=O)N3CCOCC3)cc2)c(C)c1NS(C)(=O)=O | inconclusive: 5.17 µM [rising, full curve, poor fit] | 
24 | COc1ccc(Br)cc1Cn1nnc(C(=O)Nc2ccc3c(c2)OCCO3)c1N | inconclusive: 29.1 µM [cytotoxic, single point] | 
25 | O=C(c1ccc2c(c1)OCO2)C1CCCN(C(=O)c2cnn(Cc3ccccc3)c2)C1 (centres undefined) |  | inconclusive: 4.45%

Row | SMILES | Potency | activity change, negative = cytotoxic
26 | O=C(Nc1nc(-c2cccc([N+](=O)[O-])c2)cs1)C(c1ccccc1)c1ccccc1 | inconclusive: 29.1 µM [cytotoxic, single point] | 
27 | Cc1nc2sc(-c3ccccc3)cc2c(=O)n1N | inconclusive: 11.6 µM [cytotoxic, partial curve] | 
28 | COc1ccc(/C=C/C(O)=C2/C(=O)N(C)C3(C)CC2c2ccccc2O3)cc1 (centres undefined) | inconclusive: 29.1 µM [cytotoxic, single point] | 
29 | CC(C)c1ccc(/C=N/NC(=O)c2c(Cl)cnn2C)cc1 | inactive | 
30 | CCc1ccc(C(C)NC(=S)NC2CCCCC2)cc1 (centres undefined) | inconclusive: 25.9 µM [cytotoxic, single point] | 
31 | CCCS(=O)(=O)N1CCC(N2CCN(Cc3ccc(C)cc3)C(=O)C2=O)CC1 | inactive | 
32 | O=C(NCCN1CCC(n2c(=O)[nH]c3ccccc32)CC1)c1ccc(C(F)(F)F)cc1C(F)(F)F | inconclusive: 16.4 µM [cytotoxic, partial curve] | 
33 | O=C(Nc1ccc2ccccc2c1)N1CCN(c2ncccc2C(F)(F)F)CC1 | inactive | 
34 | COc1ccc(C[C@@H]2CN3C(=NC[C@@H]3C)N2CCNC(=O)c2ccc(C)c(Br)c2)cc1 | inconclusive: 2.91 µM [cytotoxic, partial curve] | 
35 | CCc1cc(C(=O)N2CCCC(N3CCN(c4cccc(C(F)(F)F)c4)CC3)C2)n(C)n1 (centres undefined) | inconclusive: 23.1 µM [cytotoxic, single point] | 
36 | O=C(c1ccco1)N1CCN(c2cc(C(F)(F)F)nc3ncnn23)CC1 |  | inconclusive: 30.9%
37 | CCCCn1c(SCC#N)nc2ccccc2c1=O | inactive | 
38 | O=C(Cn1cnc2c(nnn2Cc2ccc(F)cc2)c1=O)NCc1ccc(F)cc1 | inconclusive: 13 µM [cytotoxic, partial curve, poor fit] | 
39 | CCOc1cc(-c2nc(-c3ccccc3)c(-c3cc([N+](=O)[O-])ccc3C)[nH]2)ccc1O | inactive | 
40 | O=[N+]([O-])c1ccc(COc2cccnc2)cc1 | inactive | 
41 | COC(CNC(=O)C(=O)Nc1cc2c3c(c1)CCN3C(=O)CC2)OC |  | inconclusive: -22%
42 | CC(C)(C)c1ccc(C(=O)NCCC(=O)NNC(=O)COc2ccccc2F)cc1 | inconclusive: 11.6 µM [rising, partial curve] | 
43 | Cc1cccc(CN2CCc3c(OCC(=O)N4CCCc5ccccc54)cccc3C2=O)c1 | active: 16.4 µM | 
44 | O=C1NC(=NCc2ccccc2)NC1(c1ccccc1)c1ccccc1 | inactive | 
45 | Cc1nc(C#N)c(N/N=C/c2cccc(Cl)c2)o1 | inconclusive: 18.4 µM [cytotoxic, single point] | 
46 | CCn1c(C(=O)NCCCc2ccccc2)cc2sccc21 | inactive | 
47 | Cc1[nH]nc2ncc(C(=O)c3cc(F)ccc3O)cc12 | inconclusive: 18.4 µM [cytotoxic, single point] | 
48 | CN(C)c1ccc(-c2ccnc3c2CC(C)(C(=O)NCc2ccccc2)O3)cc1 (centres undefined) | inconclusive: 29.1 µM [cytotoxic, single point] | 
49 | Cc1[nH]n(-c2nc(-c3ccc(Cl)cc3)cs2)c(=O)c1N=Nc1ccc(O)cc1 | inconclusive: 13 µM [cytotoxic, partial curve, poor fit] | 
50 | COc1ccc(OC)c(Nc2nc3ccc(C)cc3n3cnnc23)c1 | inactive | 

Individual results from the list:
Under Potency, O=C(Nc1nc(-c2cccc([N+](=O)[O-])c2)cs1)C(c1ccccc1)c1ccccc1 has inconclusive: 29.1 µM [cytotoxic, single point]
Under Potency, CCc1cc(C(=O)N2CCCC(N3CCN(c4cccc(C(F)(F)F)c4)CC3)C2)n(C)n1 (centres undefined) has inconclusive: 23.1 µM [cytotoxic, single point]
Under Potency, O=[N+]([O-])c1ccc(COc2cccnc2)cc1 has inactive

Next part

Row | SMILES | Potency | activity change, negative = cytotoxic
51 | C=CCC1C=CCC(CC=C)N1C(=O)c1ccccc1[N+](=O)[O-] (centres undefined) | inactive | 
52 | COc1cc(/C=C2/CC(C)OC2=O)c([N+](=O)[O-])cc1OC (centres undefined) | inactive | 
53 | CCOC(=O)c1cnc(-n2nc(C)cc2C)nc1NCc1ccccc1 | inconclusive: 16.4 µM [cytotoxic, single point] | 
54 | CNC(=O)C12CCC(C)(c3nc4cc(C)c(C)cc4nc31)C2(C)C (centres undefined) | inconclusive: 29.1 µM [cytotoxic, single point] | 
55 | CN(Cc1ccccc1)C(=O)CCS(=O)(=O)c1ccc2c(c1)NC(=O)CS2 |  | inconclusive: -61.2%
56 | Cc1cc(NC(=O)C(Cl)c2ccccc2)no1 (centres undefined) | inconclusive: 29.1 µM [cytotoxic, single point] | 
57 | O=C(Cn1cnc2c(OCc3ccccc3)ncnc21)N[C@H](CO)Cc1cc2ccccc2[nH]1 | inactive | 
58 | CCCN(Cc1cc2cc(C)ccc2[nH]c1=O)C(=O)c1cccc(Cl)c1 | inconclusive: 0.651 µM [cytotoxic, full curve, poor fit] | 
59 | Cc1cccc(C)c1NC(=O)CNC(=O)c1cccnc1 | inconclusive: 16.4 µM [cytotoxic, partial curve] | 
60 | CCCCNc1cc(=O)n(C)c(=O)[nH]1 |  | inconclusive: 1.41%
61 | O=C1C[C@@H]2c3c(cccc3CN1Cc1ccc(Cl)cc1)C[C@@H](O)[C@H]2O | inactive | 
62 | Cc1ccc(CNC(=O)c2ccc(C)c(S(=O)(=O)N3CCCCC3)c2)cc1 | inactive | 
63 | Cc1ccc(CNC(=O)c2ccc3c(=O)c(O)c(-c4ccc(C)cc4)[nH]c3c2)cc1 | active: 4.61 µM | 
64 | CCOC(=O)C1CCN(CC(C)(C)NS(=O)(=O)c2ccc(C)cc2)CC1 | inactive | 
65 | O=P(Cc1ccccc1)(Cc1ccccc1)c1ccccc1 | inactive | 
66 | Cc1c(N=C/C=C/c2ccccc2)cnn1C | inactive | 
67 | COCCCN1CCc2nc(SCC(=O)Nc3ccc(C)c(Cl)c3)[nH]c(=O)c2C1 | inactive | 
68 | C=CCOc1nc2c(c(=O)n(C)c(=O)n2C)n1Cc1ccccc1Cl | inconclusive: 20.6 µM [cytotoxic, partial curve, poor fit] | 
69 | O=C(OCc1c(-c2ccccc2)ncc2ccccc12)c1cccs1 | inconclusive: 29.1 µM [cytotoxic, single point] | 
70 | Cc1ccc2nc(Cl)c(C3CC(c4cccs4)=NN3C(=O)CCCC(=O)O)cc2c1 (centres undefined) | inactive | 
71 | COc1cc(O)cc(O)c1C(=O)/C=C/c1ccccc1 | inconclusive: 23.1 µM [cytotoxic, single point] | 
72 | Cc1c(Cl)c([N+](=O)[O-])nn1CCCC(=O)Nc1cccc(Cl)c1 | inconclusive: 14.6 µM [rising, partial curve] | 
73 | CCOC(=O)CC(NC(=O)c1cc2cccc(OC)c2oc1=O)c1ccc(OC)cc1 (centres undefined) | inactive | 
74 | COc1ccc(CC(=O)Nc2cccc(-c3nnc(-c4ccc(C)cc4)o3)c2)cc1OC | inactive | 

Two of the compounds above, field by field.
Cc1ccc(CNC(=O)c2ccc(C)c(S(=O)(=O)N3CCCCC3)c2)cc1
  Potency: inactive
Cc1ccc(CNC(=O)c2ccc3c(=O)c(O)c(-c4ccc(C)cc4)[nH]c3c2)cc1
  Potency: active: 4.61 µM
